Results as given in PubChem BioAssay (Tox21).
Where “and” joins values, the source holds several entries; their conditions need not be identical. Identical values can stand only once. The shares of active, inactive and inconclusive entries below differ from those in the screen. Potencies beside an inconclusive call are fits to weak or partial responses and may not hold up. Calls of active or inactive are those of the source. Calls follow the shape of the full dose curve.

These compounds were tested against Beta-2 adrenergic receptor (Homo sapiens) (UniProt P07550) (assay: Adrenergic beta2 receptor (ADRB2) small molecule agonists, cell-based qHTS assay (AID 1963593;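 as to activation: CHO cells stably overexpressing human ADRB2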)). Conditions: CHO-ADRB2 cells, cAMP HTRF, 30 min; activation: at 92.4 µM (top of the series) unless noted.
Summary of the method: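 CHO cells stably over-expressing ADRB2 were plated overnight at 37C, then dosed with compounds plus a stimulation mix containing 100uM IBMX and 25uM Ro-20-1724 for 0.5hr at room temperature. cAMP was measured by HTRF competition, 1hr.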
% is scaled to controls: 0 for no effect and ±100 for the full control effect; potency is read from the fitted curve at half-maximal effect.

| Compound | activation | Potency |
| --- | --- | --- |
| CC(C)(C)c1ccc(S)cc1 | inconclusive: -0.626% |  |
| O=C(O)C1CCC(C(=O)O)CC1 (stereo unspecified) |  | inactive |
| C[C@H](NC(CCc1ccccc1)C(=O)O)C(=O)N1CCC[C@H]1C(=O)O (stereo partly specified) |  | inactive |
| CO[Si](C)(C)OC |  | inactive |
| CC(N=C(NC#N)Nc1ccncc1)C(C)(C)C (stereo unspecified) |  | inconclusive: 8410 nM [inhibitor, single point] |
| O=S1(=O)CCCC1 |  | inactive |
| CC(=O)O[C@H](CC(=O)[O-])C[N+](C)(C)C |  | inconclusive: 27.3 nM [inhibitor, full curve, poor fit] |
| O=c1[nH]c(=O)c2ccccc2o1 |  | inactive |
| C=C(C)C(=O)OCCCCCCCCCCCC |  | inconclusive: 173 nM [inhibitor, partial curve, poor fit] and inconclusive: 1.37 µM [inhibitor, single point] |
| NCC(=O)O | inactive: 1.66% [at 19 µM] |  |
| CCOc1ccc(NS(=O)(=O)c2ccc(N)cc2)nn1 | inconclusive: 17.5% [at 42.5 µM] |  |
| COc1ccc(CCC(=O)c2c(O)cc(O[C@@H]3O[C@H](CO)[C@@H](O)[C@H](O)[C@H]3O[C@@H]3O[C@@H](C)[C@H](O)[C@@H](O)[C@H]3O)cc2O)cc1O |  | inconclusive: 688 nM [inhibitor, full curve, poor fit] |
| Cc1ncsc1CCO |  | inactive |
| O=c1[nH]cnc2nc[nH]c12 |  | inconclusive: 2.4 nM [falling, full curve, poor fit] |
| C[Si](C)O[Si](C)C |  | inactive |
| CCCCC/C=C/CC1CC(=O)OC1=O (stereo unspecified) | inconclusive: -14.3% |  |
| C=C(C)C(=O)OC(C)C |  | inactive |
| Nc1ccc([N+](=O)[O-])c(C(F)(F)F)c1 |  | inconclusive: 7500 nM [inhibitor, single point] |
| CC(C)OCCO |  | inactive |
| NNC(=O)CCCCC(=O)NN |  | inactive |
| COc1cc(OC)c2ccc(=O)oc2c1 | inconclusive: -55.6% |  |
